Measured values published in patent US20220073470A1, “INHIBITORS OF CGAS ACTIVITY AS THERAPEUTIC AGENTS” (BELLBROOK LABS, LLC, priority 2019, published 2022).
For part of these data: At least one compound was matched to its structure with a doubt left. Some results were stated once for a whole list of compounds, not compound by compound.

Protein sequences, listed by entry. Tags and fused reporters are not part of them.
UniProt Q8N884, whole entry: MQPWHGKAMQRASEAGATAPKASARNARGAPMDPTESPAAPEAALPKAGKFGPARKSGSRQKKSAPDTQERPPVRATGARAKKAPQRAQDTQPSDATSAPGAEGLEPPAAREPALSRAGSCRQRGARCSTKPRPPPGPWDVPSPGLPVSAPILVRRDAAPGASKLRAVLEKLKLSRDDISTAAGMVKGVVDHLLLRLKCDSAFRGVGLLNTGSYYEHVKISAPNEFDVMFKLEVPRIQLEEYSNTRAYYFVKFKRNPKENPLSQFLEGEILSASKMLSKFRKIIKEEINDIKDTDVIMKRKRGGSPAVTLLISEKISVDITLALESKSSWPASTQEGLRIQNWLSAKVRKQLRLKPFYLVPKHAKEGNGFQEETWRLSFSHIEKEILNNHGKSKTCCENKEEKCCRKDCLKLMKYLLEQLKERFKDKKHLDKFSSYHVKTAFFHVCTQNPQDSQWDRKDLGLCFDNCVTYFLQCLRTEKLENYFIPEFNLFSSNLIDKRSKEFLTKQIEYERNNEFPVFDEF

Tests used:
cGAS [1] = target: T1, cGAS (Homo sapiens, UniProt Q8N884); assay: SPR binding to cGAS
Source text: Following confirmation of hits at three concentrations and removal of compounds with visually evident reactivity or metabolic liabilities, non-stoichiometric inhibitors, aggregators, DNA intercalators and redox-active compounds were triaged using established assays. Initial SAR based on more than 100 commercially available analogs provided additional confidence that the compounds of the disclosure were bonafide inhibitors, and informed potential scaffold hops and toleration for modifications. The compounds of formula (I) of the disclosure were selected for advancement into a hit-to-lead study. […] The compounds of formula (I) of the disclosure are competitive with GTP and its potency is enhanced in the presence of Mn^2+.
Potency and MOA studies, including Mn^2+ sensitivity, are performed using the cGAS enzymatic assay. Dose response experiments are used to determine IC50 values under basal conditions (5 mM MgCl2, 100 μM ATP/GTP), and with the addition of physiological levels of Mn (0.2 mM) using human and mouse cGAS. Ligand optimization is driven by potency with the human enzyme; potency with mouse cGAS informs selection of an appropriate disease model for efficacy studies. Competition with ATP and GTP is assessed by comparing basal IC50 values to those in the presence of saturating ATP or GTP, and subsequently confirmed by measuring velocity vs. substrate at varying ATP or GTP levels. […]

cGAS [2] = target: T1, cGAS; assay: Thermal shift assay (TSA) with cGAS; format: binding; settings: in the presence of ATP, GTP and dsDNA
full-length human cGAS = target: T2, full-length human cGAS (Homo sapiens, UniProt Q8N884); assay: cGAS enzymatic assay (FP readout), inhibition of cGAS; format: biochemical; settings: Mn2+ 200 μM versus none
T2 construct: The cGAS assay was used to screen 100,000 compounds with full-length human cGAS; 6xHis; made in house
Description: Some exemplary compounds of the disclosure were tested for inhibition of cGAS (30 nM). The results are provided in Table 1 where “A” indicates an IC50 of less than 100 nM, “B” indicates an IC50 of greater than 100 nM and less than 500 nM, “C” indicates an IC50 of greater than 500 nM and less than 1 μM, “D” indicates an IC50 of greater than 1 μM and less than 10 μM, and “E” indicates an IC50 of greater than 10 μM.
A homogenous cGAS enzymatic assay was developed with fluorescence polarization (FP) and time-resolved Forster resonance energy transfer (TR-FRET) readouts (FIG. 2A-D). The cGAS assay was used to screen 100,000 compounds with full-length human cGAS (FIG. 2E), resulting in the identification of novel chemotypes, two of which are further developed in a structure-driven hit-to-lead study (Table 3, below). […]
Potency and MOA studies, including Mn^2+ sensitivity, are performed using the cGAS enzymatic assay. […] Competition with ATP and GTP is assessed by comparing basal IC50 values to those in the presence of saturating ATP or GTP, and subsequently confirmed by measuring velocity vs. substrate at varying ATP or GTP levels. […]

Clc1ccc2c(-n3ccnc3)ccnc2c1 [Compound 1, 7-chloro-4-(1H-imidazol-1-yl)quinolone]
Binding in SPR (cGAS [1]): did not bind appreciably
Stabilization of cGAS in thermal shift assays (TSA) (cGAS [2]): stabilize cGAS

CCN(CC)CCCC(C)Nc1c2ccc(Cl)cc2nc2ccc(OC)cc12 (stereo not drawn) [quinacrine, reference compound]
Change in IC50 with Mn^2+ (loss of potency) (full-length human cGAS): ≤ 100 fold
